Results are given in words; binding and its absence hold for the method and conditions named. In cells and extracts the contact can be indirect. Binding calls can cover weak binding; strength is not graded here. Tags and fused reporters may be left off the sequences shown.
Target: FGF receptor (FGFR1)
Assay: co-immunoprecipitation from lysates of co-transfected 293T cells: IP with anti-MYC tag antibody, western blot with anti-FGF receptor antibody

binding: binds
B1: MYC tagged SEF-FL (full length human SEF in PCDNA4 VERSION A expression plasmid) (receptor, not shown: small tags and cut ends)
chain: ADTCGWRGVGPASRNSGLYNITFKYDNCTTYLNPVGKHVIADAQNITISQYACHDQVAVTILWSPGALGIEFLKGFRVILEELKSEGRQCQQLILKDPKQLNSSFKRTGMESQPFLNMKFETDYFVKVVPFPSIKNESNYHPFFFRTRACDLLLQPDNLACKPFWKPRNLNISQHGSDMQVSFDHAPHNFGFRFFYLHYKLKHEGPFKRKTCEQEQTTEMTSCLLQNVSPGDYIIELVDDTNTTRKVMHYALKPVHSPWAGPIRAVAITVPLVVISAFATLFTVMCRKKQQENIYSHLDEESSESSTYTAALPRERLRPRPKVFLCYSSKDGQNHMNVVQCFAYFLQDFCGCEVALDLWEDFSLCREGQREWVIQKIHESQFIIVVCSKGMKYFVDKKNYKHKGGGRGSGKGELFLVAVSAIAEKLRQAKQSSSAALSKFIAVYFDYSCEGDVPGILDLSTKYRLMDNLPQLCSHLHSRDHGLQEPGQHTRQGSRRNYFRSKSGRSLYVAICNMHQFIDEEPDWFEKQFVPFHPPPLRYREPVLEKFDSGLVLNDVMCKPGPESDFCLKVEAAVLGATGPADSQHESQHGGLDQDGEARPALDGSAALQPLLHTVKAGSPSDMPRDSGIYDSSVPSSELSLPLMEGLSTDQTETSSLTESVSSSSGLGEEEPPALPSKLLSSGSCKADLGCRSYTDELHAVAPL

From patent publication US20040235104A1
